# Test: Film method: loading capacity of active ingredient in polymer films, microscopic assessment after storage
# Assay type: physicochemical
# Conditions: no crystals in film, storage 7 days 23° C./54% relative humidity
# From the text: The film method is a process in which a clear solution of the polymer and of the active ingredient is molded to give a thin film which solidifies as a result of the solvent evaporating. Clear solution means that no clouding is evident upon normal inspection. This method is suitable in particular as a screening method in order to determine the loading limits of the solid dispersions in a simple manner. For the screening process, the film can be produced by pouring the solution with the corresponding concentrations of polymer and active ingredient onto glass plates and drawing it out with the help of a blade to give the film. Usually, the films are drawn to layer thicknesses of from 50 to 200 μm. The resulting films are then dried by drawing off the solvent, and solidified as a result. In one or more embodiments, the solvent is removed in vacuo, for example at 1 hPa to 100 hPa. […] Additionally, the removal of the solvent can be effected by the action of temperature.
# For the screening process, the films produced are then stored under controlled climatic conditions for defined periods of time—generally 14 days.
# The films can then be evaluated by microscope at 40 times magnification. Clear films are a sign of amorphous systems. Cloudy films point to relatively large crystalline fractions.
# To prepare the polymer/active ingredient mixture, the substances were weighed in the respective amounts into a 50 ml penicillin bottle.
# All of the mixtures were stirred for 24 h on a magnetic stirrer until the constituents had dissolved. After visually assessing the solution (clear solution), the solvent was drawn out on a glass plate using a 120 μm blade. The resulting film was dried for 0.5 h at room temperature of 22+/−2° C. in a fume cupboard and then for 0.5 h in a vacuum drying cabinet at 50° C. and […]. […] Clear films (without active ingredient crystals) indicate molecularly disperse solutions and cloudy films (with active ingredient crystals) indicate crystalline systems.
# [1] = molecularly disperse dissolved active ingredient
smiles,measurement,setting,value
C(=C\c1ccccc1)/CN1CCN(C(c2ccccc2)c2ccccc2)CC1 [Cinnarizine],"Loading capacity, active ingredients in %, Films with Kollicoat ® Smartseal + 6 mol partially neutralized",6 mol % of basic groups neutralized with adipic acid,20%
same,"Loading capacity, active ingredients in %, Films with Kollicoat ® Smartseal + 8 mol partially neutralized",8 mol % of basic groups neutralized with succinic acid,20%
same,"Loading capacity, active ingredients in %, Films with Eudragit ® EPO",[1],<10%
same,"Loading capacity, active ingredients in %, Films with Kollicoat ® Smartseal freeze-dried",[1],20%
